Test: micronisation losses
Conditions: micronisation of crystalline particles; for Form A due to blockage of the milling equipment

CNCCOc1ccccc1C1(Nc2nccn(-c3cc(C(=O)NC4CC4)cc(F)c3C)c2=O)CC1 [Form S, N-cyclopropyl-3-fluoro-4-methyl-5-[3-[[1-[2-[2-(methylamino)ethoxy]phenyl]cyclopropyl]amino]-2-oxo-pyrazin-1-yl]benzamide]
typical micronisation losses: less than 5%

CNCCOc1ccccc1C1(Nc2nccn(-c3cc(C(=O)NC4CC4)cc(F)c3C)c2=O)CC1 [Form A, N-cyclopropyl-3-fluoro-4-methyl-5-[3-[[1-[2-[2-(methylamino)ethoxy]phenyl]cyclopropyl]amino]-2-oxo-pyrazin-1-yl]benzamide, reference compound]
typical micronisation losses: up to 50%

Source: patent US20190100498A1, “CRYSTALLINE FORM” (AstraZeneca AB, priority 2016, published 2019)
